Taken from: PubChem BioAssay AID1259308 (NCATS, 2017)
Purpose: 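Genes whose loss raises luciferase production in HEK293 cells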 (primary screen). Cell system: human HEK293 embryonic kidney cells stably expressing firefly luciferase (HEK-CMV-Luc2-Hygro). Knock-down reagent: single siRNA against human genes, 0.8 pmol siRNA per well. Timing: 72 h. Measured: 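Luciferase light (ONE-Glo) measured on one replicate plate set and viability (CellTiter-Glo) on the other, scaled to a negative control siRNA, with robust z-scores and luciferase per cell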. Direction: total luciferase, z-score and total luciferase, % of control: higher = more reporter protein produced; luciferase per cell, z-score: higher = more reporter output per viable cell; viable cells, % of control: higher = more viable cells. Call rule: 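An siRNA counts as active if its total luciferase robust z-score exceeds 3; genes with two or more such siRNAs out of three were retested with fresh siRNAs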. Calls: active = raised luciferase; inactive = no rise.
Here is a random part of about 59,000 reagents. Over the whole deposit, about 1,510 (2.6%) are marked active. 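Calls use total luciferase alone and ignore viability, so some active siRNAs may act by altering cell number.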 The numbers tell different reagents against one gene apart. Reagent sequences are not shown.

gene symbol | reagent | total luciferase, z-score | total luciferase, % of control | luciferase per cell, z-score | viable cells, % of control | activity call
PWWP2A | 1 | 0.717 | 96.1 | 0.301 | 99.3 | inactive
PWWP2A | 2 | 0.44 | 90.6 | 0.724 | 83.7 | inactive
PWWP2A | 3 | -1.16 | 58.8 | -1.67 | 102 | inactive
RNPS1P1 | 1 | 0.68 | 95.4 | 0.463 | 94.4 | inactive
RNPS1P1 | 2 | -1.78 | 46.5 | -1.58 | 78.9 | inactive
RNPS1P1 | 3 | -2.32 | 35.8 | -1.1 | 53.5 | inactive
PLCB1 | 1 | -0.623 | 69.5 | -0.86 | 97.4 | inactive
PLCB1 | 2 | -0.0749 | 80.4 | 0.665 | 75.4 | inactive
PLCB1 | 3 | -0.0423 | 81 | -0.299 | 98 | inactive
LCAT | 1 | 0.617 | 94.2 | 0.546 | 91.1 | inactive
LCAT | 2 | -0.523 | 71.5 | -0.71 | 96.3 | inactive
LCAT | 3 | 4.56 | 173 | 3.02 | 87.1 | active
GBP1 | 1 | -1.32 | 55.6 | -1.42 | 90.4 | inactive
GBP1 | 2 | -0.0127 | 81.6 | -0.396 | 101 | inactive
GBP1 | 3 | 0.509 | 92 | 0.554 | 88.9 | inactive
POLR3B | 1 | 2.11 | 124 | 1.25 | 99.5 | inactive
POLR3B | 2 | 0.131 | 84.5 | -0.53 | 109 | inactive
POLR3B | 3 | -1.06 | 60.8 | -1.23 | 94 | inactive
PNP | 1 | -0.0332 | 81.2 | 0.102 | 88.4 | inactive
PNP | 2 | 1.2 | 106 | 2.93 | 54.6 | inactive
PNP | 3 | -0.537 | 71.2 | -0.82 | 98.8 | inactive
PRAMEF7 | 1 | 1.03 | 102 | 0.441 | 102 | inactive
PRAMEF7 | 2 | 0.188 | 85.6 | 0.865 | 76.2 | inactive
PRAMEF7 | 3 | 1.34 | 109 | 0.926 | 95.1 | inactive
SUCLA2 | 1 | -1.28 | 56.4 | -1.1 | 84.3 | inactive
SUCLA2 | 2 | 0.304 | 87.9 | 0.16 | 94.2 | inactive
SUCLA2 | 3 | -0.25 | 76.9 | 0.13 | 83.1 | inactive
TLR8 | 1 | -1.79 | 46.2 | -2.09 | 89.6 | inactive
TLR8 | 2 | -0.927 | 63.4 | -0.616 | 83.4 | inactive
TLR8 | 3 | -0.838 | 65.2 | -1.39 | 105 | inactive
NINJ1 | 1 | -1.48 | 52.4 | -1.29 | 82.2 | inactive
NINJ1 | 2 | -0.525 | 71.4 | 0.941 | 62.3 | inactive
NINJ1 | 3 | -2.26 | 36.9 | -1.85 | 67.1 | inactive
DGKK | 1 | 0.183 | 85.5 | 0.115 | 92.7 | inactive
DGKK | 2 | -0.391 | 74.1 | -0.466 | 93.6 | inactive
DGKK | 3 | -0.825 | 65.5 | -1.7 | 115 | inactive
ABCA13 | 1 | 0.393 | 89.7 | 1.32 | 70.7 | inactive
ABCA13 | 2 | -0.977 | 62.5 | -0.822 | 86.7 | inactive
ABCA13 | 3 | -0.811 | 65.8 | -1.15 | 99.4 | inactive
ASTL | 1 | 0.14 | 84.7 | 0.116 | 91.8 | inactive
ASTL | 2 | 1.68 | 115 | 1.12 | 95.9 | inactive
ASTL | 3 | -0.751 | 66.9 | -1.31 | 106 | inactive
RAB12 | 1 | -1.15 | 59.1 | -1.04 | 86.9 | inactive
RAB12 | 2 | -0.633 | 69.3 | -0.821 | 96.1 | inactive
RAB12 | 3 | 0.174 | 85.3 | 0.253 | 89.2 | inactive
AADACL4 | 1 | 0.0477 | 82.8 | 0.00936 | 92.3 | inactive
AADACL4 | 2 | 2 | 122 | 1.93 | 81.8 | inactive
AADACL4 | 3 | -0.284 | 76.2 | -0.422 | 95.2 | inactive

Records above whose target name starts with A or a (9):
gene symbol | reagent | total luciferase, z-score | total luciferase, % of control | luciferase per cell, z-score | viable cells, % of control | activity call
ABCA13 | 1 | 0.393 | 89.7 | 1.32 | 70.7 | inactive
ABCA13 | 2 | -0.977 | 62.5 | -0.822 | 86.7 | inactive
ABCA13 | 3 | -0.811 | 65.8 | -1.15 | 99.4 | inactive
ASTL | 1 | 0.14 | 84.7 | 0.116 | 91.8 | inactive
ASTL | 2 | 1.68 | 115 | 1.12 | 95.9 | inactive
ASTL | 3 | -0.751 | 66.9 | -1.31 | 106 | inactive
AADACL4 | 1 | 0.0477 | 82.8 | 0.00936 | 92.3 | inactive
AADACL4 | 2 | 2 | 122 | 1.93 | 81.8 | inactive
AADACL4 | 3 | -0.284 | 76.2 | -0.422 | 95.2 | inactive

The listing continues:
gene symbol | reagent | total luciferase, z-score | total luciferase, % of control | luciferase per cell, z-score | viable cells, % of control | activity call
LMAN2 | 1 | -0.323 | 75.5 | -0.424 | 94.3 | inactive
LMAN2 | 2 | 0.502 | 91.9 | 0.569 | 88.4 | inactive
LMAN2 | 3 | -0.716 | 67.6 | -0.59 | 88.3 | inactive
IL6 | 1 | -0.119 | 79.5 | 0.536 | 77.2 | inactive
IL6 | 2 | -1.91 | 43.8 | -2.44 | 93 | inactive
IL6 | 3 | 0.889 | 99.6 | 0.99 | 85.7 | inactive
DNA2 | 1 | 0.269 | 87.2 | 0.327 | 89.4 | inactive
DNA2 | 2 | -0.772 | 66.5 | -1.09 | 99 | inactive
DNA2 | 3 | 2.07 | 123 | 2.4 | 73.1 | inactive
TMPRSS6 | 1 | 1.19 | 106 | 1.03 | 89.8 | inactive
TMPRSS6 | 2 | 0.999 | 102 | 0.876 | 90.3 | inactive
TMPRSS6 | 3 | -0.305 | 75.8 | -0.831 | 105 | inactive
GRIN2B | 1 | -0.363 | 74.7 | -0.376 | 92.1 | inactive
GRIN2B | 2 | -0.284 | 76.2 | -0.898 | 108 | inactive
GRIN2B | 3 | -1.28 | 56.3 | -0.38 | 69.6 | inactive
RTP1 | 1 | 0.162 | 85.1 | 0.381 | 86 | inactive
RTP1 | 2 | -1.29 | 56.2 | -1.7 | 98.2 | inactive
RTP1 | 3 | -1.27 | 56.5 | -0.236 | 67.2 | inactive
COPS2 | 1 | 0.379 | 89.4 | 0.943 | 78 | inactive
COPS2 | 2 | -0.629 | 69.4 | -0.743 | 94.3 | inactive
COPS2 | 3 | -1.07 | 60.6 | -1.04 | 89 | inactive
MFGE8 | 1 | 1.33 | 108 | 0.669 | 101 | inactive
MFGE8 | 2 | -0.525 | 71.4 | -0.712 | 96.3 | inactive
MFGE8 | 3 | 0.229 | 86.4 | -0.0427 | 97.7 | inactive
IL4 | 1 | 1.19 | 106 | 2.06 | 68.6 | inactive
IL4 | 2 | 0.328 | 88.4 | 0.116 | 95.8 | inactive
IL4 | 3 | -0.468 | 72.6 | -0.864 | 102 | inactive
